Measurements reported in patent US7393845B2 (H. Lundbeck A/S, priority 2001, dated 2008).
Some entries share one result that the patent states for a list of compounds.

Test system: 3H-5-HT uptake into whole rat brain synaptosomes
Assay: Inhibition of 3H-5-HT uptake into rat brain synaptosomes
Format: biochemical
Details: in vitro

IC50, < 0.02 µM:
N#Cc1ccc(N2CCN(CCCCSc3ccc(C(F)(F)F)cn3)CC2)c2c1OCCO2 [Compound 1r, 2-{4-[4-(8-Cyano-2,3-dihydrobenzo[1,4]dioxin-5-yl)piperazin-1-yl]butylsulfanyl}-5-trifluoromethylpyridine]
Cc1cc(Cl)nc(SCCN2CCN(c3cc(Cl)cc4c3OCCN4)CC2)c1C#N [Compound 2aj, 6-Chloro-2-[2-[4-(6-chloro-2,3-dihydro-1,4-benzoxazin-8-yl)piperazin-1-yl]ethylsulfanyl]-4-methylnicotinonitrile]
Cc1cc(C)c(C#N)c(SCCN2CCN(c3cc(Cl)cc4c3OCCN4)CC2)n1 [Compound 2ai, 2-[2-[4-(6-Chloro-2,3-dihydro-1,4-benzoxazin-8-yl)piperazin-1-yl]ethylsulfanyl]-4,6-dimethylnicotinonitrile]
Cc1nc(SCCN2CCN(c3ccc(C#N)c4c3OCCO4)CC2)c(C#N)c(C)c1Cl [Compound 2u, 5-Chloro-2-{3-[4-(8-cyano-2,3-dihydrobenzo[1,4]dioxin-5-yl)piperazin-1-yl]ethylsulfanyl}-4,6-dimethylnicotinonitrile]
Cc1cc(Cl)nc(SCCN2CCN(c3cccc4c3OCCO4)CC2)c1C#N [Compound 2o, 6-Chloro-2-{3-[4-(2,3-dihydrobenzo[1,4]dioxin-5-yl)piperazin-1-yl]ethylsulfanyl}-4-methylnicotinonitrile]
N#Cc1cccnc1SCCN1CCN(c2cc(Cl)cc3c2OCC(=O)N3)CC1 [Compound 2z, 2-[2-[4-(6-Chloro-2,3-dihydro-1,4-benzoxazin-3-on-8-yl)piperazin-1-yl]ethylsulfanyl]nicotinonitrile]
N#Cc1cccnc1SCCN1CCN(c2cc(Cl)cc3c2OCCN3)CC1 [Compound 2ah, 2-[2-[4-(6-Chloro-2,3-dihydro-1,4-benzoxazin-8-yl)piperazin-1-yl]ethylsulfanyl]nicotinonitrile]
Cc1cc(N2CCCCC2)nc(SCCN2CCN(c3ccc(C#N)c4c3OCCO4)CC2)c1C#N [Compound 2c, 2-{2-[4-(8-Cyano-2,3-dihydrobenzo[1,4]dioxin-5-yl)piperazin-1-yl]ethylsulfanyl}-4-methyl-6-(piperidin-1-yl)nicotinonitrile]
Cc1cc(C)c(S(=O)(=O)c2ccccc2)c(SCCN2CCN(c3cccc4c3OCCO4)CC2)n1 [Compound 2l, 2-{3-[4-(2,3-Dihydrobenzo[1,4]dioxin-5-yl)piperazin-1-yl]ethylsulfanyl}-4,6-dimethyl-3-phenylsulfonylpyridine]
Cc1cc(C)c(C#N)c(SCCN2CCN(c3ccc(C#N)c4c3OCCO4)CC2)n1 [Compound 2s, 2-{3-[4-(8-Cyano-2,3-dihydrobenzo[1,4]dioxin-5-yl)piperazin-1-yl]ethylsulfanyl}-4,6-dimethylnicotinonitrile]
Cc1cc(C)c(C#N)c(SCCN2CCN(c3cc(Cl)cc4c3OCC(=O)N4)CC2)n1 [Compound 2aa, 2-[2-[4-(6-Chloro-2,3-dihydro-1,4-benzoxazin-3-on-8-yl)piperazin-1-yl]ethylsulfanyl]-4,6-dimethylnicotinonitrile]
